The target in this test is retinoid X receptor (RXR), endogenous (human (endogenous in HeLa)). Kind of test: co-IP; endogenous RXR immunoprecipitated with RXR antibody (SC-774) on protein A/G magnetic beads (Pierce Crosslink Magnetic IP/Co-IP Kit) from 400 μg lysate of HeLa or HEK293 cells transfected with HA-VDR, 1 hour at room temperature; western blot with antibodies against HA or VDR; in the absence or presence of Vit D3. On the technique in general: A western blot detects proteins with antibodies after separation by electrophoresis.

This note sets out measurements from publication PMC5681508.

Results are given in words; binding and its absence hold for the method and conditions named. In cells and extracts the contact can be indirect. Binding calls can cover weak binding; strength is not graded here. Tags and fused reporters may be left off the sequences shown.

B1: HA-tagged VDR–wild type (vitamin D receptor) (protein, UniProt P11473 1-427)
chain: MEAMAASTSLPDPGDFDRNVPRICGVCGDRATGFHFNAMTCEGCKGFFRRSMKRKALFTCPFNGDCRITKDNRRHCQACRLKRCVDIGMMKEFILTDEEVQRKREMILKRKEEEALKDSLRPKLSEEQQRIIAILLDAHHKTYDPTYSDFCQFRPPVRVNDGGGSHPSRPNSRHTPSFSGDSSSSCSDHCITSSDMMDSSSFSNLDLSEEDSDDPSVTLELSQLSMLPHLADLVSYSIQKVIGFAKMIPGFRDLTSEDQIVLLKSSAIEVIMLRSNESFTMDDMSWTCGNQDYKYRVSDVTKAGHSLELIEPLIKFQVGLKKLNLHEEEHVLLMAICIVSPDRPGVQDAALIEAIQDRLSNTLQTYIRCRHPPPGSHLLYAKMIQKLADLRSLNEEHSKQYRCLSFQPECSMKLTPLVLEVFGNEIS
As for B1, the binding result is on record as “binds”.
